From article PMC10275993
These are yes or no findings as the source states them, for the method shown. In cells and extracts the contact can be indirect. Some entries that bind do so weakly or less than the wild type. For some of these results: Tags and fused reporters may be left off the sequences shown.

Chains of the proteins cited; added tags and fusions are not shown.
UniProt P06748: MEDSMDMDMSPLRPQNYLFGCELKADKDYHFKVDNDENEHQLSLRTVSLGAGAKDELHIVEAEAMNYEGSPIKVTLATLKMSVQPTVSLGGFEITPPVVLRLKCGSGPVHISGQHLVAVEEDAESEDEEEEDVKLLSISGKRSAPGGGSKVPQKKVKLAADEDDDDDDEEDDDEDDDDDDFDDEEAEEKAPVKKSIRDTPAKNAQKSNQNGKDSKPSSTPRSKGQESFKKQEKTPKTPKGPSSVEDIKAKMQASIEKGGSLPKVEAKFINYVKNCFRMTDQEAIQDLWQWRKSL

How the values were obtained:
Experiment in all cases: co-IP; 1 nmol synthetic HA-tagged (XR)12 peptide mixed with HEK293 lysate (200 μg/sample), anti-HA antibody beads, 4 h at 4°C, IP buffer 150 mM NaCl, 20 mM HEPES pH 7.4, 1 mM EDTA, 0.5% Triton X-100; immunoblot of endogenous proteins; only the target purified
HA-(PR)12 (human) = target: T1, HA-(PR)12 (human)
T1 sequence (peptide): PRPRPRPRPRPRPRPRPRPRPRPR

HA-(QR)12 = target: HA-(QR)12
HA-(YR)12 = target: HA-(YR)12

Q: Which binding (HA-(PR)12 (human)) does the source give for “nucleophosmin (NPM1) (from UniProt P06748 1-294)” here?
A: The binding was “binds”.

B1: Non-POU domain-containing octamer-binding protein (NONO) (protein, UniProt Q15233 1-471)
chain: MQSNKTFNLEKQNHTPRKHHQHHHQQQHHQQQQQQPPPPPIPANGQQASSQNEGLTIDLKNFRKPGEKTFTQRSRLFVGNLPPDITEEEMRKLFEKYGKAGEVFIHKDKGFGFIRLETRTLAEIAKVELDNMPLRGKQLRVRFACHSASLTVRNLPQYVSNELLEEAFSVFGQVERAVVIVDDRGRPSGKGIVEFSGKPAARKALDRCSEGSFLLTTFPRPVTVEPMDQLDDEEGLPEKLVIKNQQFHKEREQPPRFAQPGSFEYEYAMRWKALIEMEKQQQDQVDRNIKEAREKLEMEMEAARHEHQVMLMRQDLMRRQEELRRMEELHNQEVQKRKQLELRQEEERRRREEEMRRQQEEMMRRQQEGFKGTFPDAREQEIRMGQMAMGGAMGINNRGAMPPAPVPAGTPAPPGPATMMPDGTLGLTPPTTERFGQAATMEGIGAIGGTPPAFNRAAPGAEFAPNKRRRY
Q: How did the binding (HA-(QR)12) turn out when B1 was run?
A: The binding was “binds”.

Q: And the binding (HA-(YR)12)?
A: Its binding is “binds”.

Q: What about the binding (HA-(PR)12 (human)) of the same molecule?
A: Its binding is “binds”.
